Data as given in PubChem BioAssay AID652243 (Drosophila RNAi Screening Center, 2013)

Purpose: 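Knock-downs that decrease or increase androgen receptor reporter signal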 (primary screen)
Cells: Drosophila S2R+ cells
Knock-down reagent: long dsRNA against Drosophila genes
Time to read-out: 72 h (48 h, then 24 h hormone)
Challenge: synthetic androgen R1881 at 10 nM for 24 h
Measured: 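Firefly light from an androgen-responsive reporter and Renilla control light per well, raw and unnormalised, for each of two replicates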
Scale: firefly reporter light: higher = more light from androgen-responsive reporter; Renilla control light: higher = more constitutive control signal (cell number, transfection)
Active means: 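Hit when the log firefly-to-Renilla ratio dropped or increased by a fixed fold versus the mean of GFP or LacZ controls across duplicate plates; lowering cut given as 1.5 and as 3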
Calls: active = hit: reporter lowered or raised; inactive = no hit
The screen tested about 24,000 reagents; shown is a random part of those that have a named target and a result. Over the whole deposit, 246 (1%) were called active. 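Plates not normalised; calls are printed but the firefly/Renilla ratio behind them is not deposited; fold cut for lowering reported inconsistently.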 Raw values are not corrected between plates. Not given: the amount of reagent.

gene | amplicon | firefly reporter light, replicate 1 | firefly reporter light, replicate 2 | Renilla control light, replicate 1 | Renilla control light, replicate 2 | activity call
bin3 | DRSC04919 | 2.88e5 | 2.25e5 | 1.71e6 | 1.97e6 | inactive
Mrp4 | DRSC14931 | 1.64e5 | 1.66e5 | 2.63e6 | 2.52e6 | inactive
Mrp4 | DRSC28151 | 4.84e5 | 3.71e5 | 1.50e6 | 1.22e6 | inactive
NAT1 | DRSC06854 | 1.18e6 | 1.20e6 | 1.08e6 | 6.68e5 | inactive
NAT1 | DRSC30053 | 9.38e5 | 6.51e5 | 5.88e5 | 3.47e5 | inactive
CG12911 | DRSC06226 | 2.83e5 | 1.46e5 | 1.76e6 | 1.03e6 | inactive
CG12911 | DRSC27975 | 9.77e5 | 6.02e5 | 2.66e6 | 1.69e6 | inactive
Dcps | DRSC12299 | 50353 | 42439 | 4.33e5 | 4.59e5 | inactive
Ccm3 | DRSC15711 | 2.41e5 | 1.57e5 | 2.11e6 | 2.24e6 | inactive
cta | DRSC03769 | 1.13e6 | 7.68e5 | 2.79e6 | 3.17e6 | inactive
CG4884 | DRSC15671 | 1.50e5 | 1.91e5 | 1.34e6 | 2.31e6 | inactive
CG4884 | DRSC26329 | 2.72e5 | 2.75e5 | 7.37e5 | 6.84e5 | inactive
CG12998 | DRSC19518 | 4.73e5 | 4.00e5 | 2.63e6 | 2.00e6 | inactive
ppk26 | DRSC10991 | 85818 | 85311 | 1.13e6 | 1.22e6 | inactive
ppk26 | DRSC25876 | 2.92e5 | 3.62e5 | 1.06e6 | 9.21e5 | inactive
FRG1 | DRSC10648 | 2.19e5 | 1.41e5 | 3.05e6 | 1.54e6 | inactive

The list goes on; the last 3 above are carried over.
gene | amplicon | firefly reporter light, replicate 1 | firefly reporter light, replicate 2 | Renilla control light, replicate 1 | Renilla control light, replicate 2 | activity call
ppk26 | DRSC10991 | 85818 | 85311 | 1.13e6 | 1.22e6 | inactive
ppk26 | DRSC25876 | 2.92e5 | 3.62e5 | 1.06e6 | 9.21e5 | inactive
FRG1 | DRSC10648 | 2.19e5 | 1.41e5 | 3.05e6 | 1.54e6 | inactive
CG13501 | DRSC04146 | 2.36e5 | 1.91e5 | 1.33e6 | 1.12e6 | inactive
Prosbeta5R1 | DRSC04581 | 1.14e5 | 1.44e5 | 8.59e5 | 1.06e6 | inactive
Prosbeta5R1 | DRSC29901 | 3.70e5 | 3.54e5 | 9.43e5 | 8.78e5 | inactive
CG34031 | DRSC37860 | 5.64e5 | 4.65e5 | 7.21e5 | 1.20e6 | inactive
Csk | DRSC12861 | 1.06e5 | 51842 | 1.56e5 | 1.30e5 | inactive
Csk | DRSC23272 | 7.98e5 | 5.43e5 | 1.38e5 | 1.01e5 | inactive
Csk | DRSC26697 | 2.47e5 | 2.62e5 | 5.98e5 | 5.70e5 | inactive
Csk | DRSC36921 | – | – | – | – | inactive
Csk | DRSC36922 | – | – | – | – | inactive
